Values joined by “and” are separate entries in the source; they are usually repeats but may differ in a detail not shown here. Identical values can stand only once. The campaign covered roughly 400,000 compounds. About 5,500 (1.4%) were called active. The shares of active, inactive and inconclusive entries below differ from those in the screen. Calls follow the shape of the dose curve; as a rule, active = well fitted cell-killing curve with a large enough effect; inconclusive = small, poorly fitted or top-dose-only effect, or effect the other way; inactive = flat fitted curve, though single readings scatter. A potency beside an inconclusive call is a rough fit, not a confirmed value.
assay: qHTS assay for MDR1-selective chemotherapeutics: Primary screen using the parental adenocarcinoma cell KB-3-1; conditions: KB-3-1 viability, CellTiter-Glo ATP luminescence, 72 h; activity change, negative = cytotoxic: at 46.1 µM (top of the series); also: nearly all actives have a fitted effect of over 60% in size
Outline: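 Parental KB-3-1 viability, qHTS format: 72 h compound exposure, 37 °C; CellTiter-Glo; media-only wells and DMSO plates as controls; concentration-effect fits on corrected data.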
% is scaled to controls: 0 for no effect and ±100 for the full control effect; potency is read from the fitted curve at half-maximal effect.

| SMILES | Potency | activity change, negative = cytotoxic |
| --- | --- | --- |
| COc1cccc(CN2C(=O)C3(C(C#N)=C(N)OC4=C3C(=O)CCC4)c3ccccc32)c1 (stereo unspecified) | inconclusive: 29.1 µM [cytotoxic, single point] | – |
| CCOC(=O)CN1CCC(c2cc(-c3ccc(Cl)cc3)n[nH]2)CC1 | inconclusive: 29.1 µM [cytotoxic, single point] | – |
| COc1ccc(/C=N/Nc2ccc([N+](=O)[O-])cc2)cc1O | inconclusive: 29.1 µM [cytotoxic, single point] | – |
| CCOC(=O)c1c2c3c(cccc3n(C)c1=O)C(=O)c1ccccc1-2 | inconclusive: 29.1 µM [cytotoxic, single point] | – |
| CC(C)c1ccc2oc(-c3ccc(N)cc3)nc2c1 | inconclusive: 14.6 µM [cytotoxic, partial curve, poor fit] | – |
| CC(=O)N(c1ccc(N(C(C)=O)S(=O)(=O)c2cccs2)cc1)S(=O)(=O)c1cccs1 | – | inactive: 3.62% |
| COc1ccc(C(=O)NCCc2c[nH]c3ccccc23)cc1S(=O)(=O)N1CCOCC1 | – | inactive: -13.7% |
| O=C(NCCOc1ccccc1Cl)c1cccc2c1C(=O)c1ccc(Cl)cc1S2(=O)=O | inconclusive: 20.6 µM [cytotoxic, single point] | – |
| C/C=C1\COC(C(=O)NCCCN2CCCC2=O)(C(F)(F)F)C=C1C=C(C)C (stereo unspecified) | – | inactive: -2.56% |
| COc1ccc(CNC(=O)C[C@H]2C(=O)N(C3CCCCC3)C[C@@H]2Cc2ccccc2)cc1 | inconclusive: 4.61 µM [rising, full curve, poor fit] | – |
| O=C(NCCc1ccccc1)C(=O)c1c(-c2ccccc2)[nH]c2ccccc12 | inconclusive: 29.1 µM [cytotoxic, single point] | – |
| CC1CCN(C(=O)COC(=O)c2ccc(Br)o2)CC1 | inconclusive: 29.1 µM [cytotoxic, single point] | – |
| CCCCNC(=O)Cn1c(SCc2cccc(Cl)c2)nc2ccncc21 | inconclusive: 29.1 µM [rising, single point] | – |
| O=c1c2cc(Br)ccc2nc(-c2cccc(Cl)c2)n1O | active: 9.2 µM | – |
| NS(=O)(=O)c1ccc(CCNC(=O)CN2CCN(c3ccccc3F)CC2)cc1 | – | inactive: 15.9% |
| Cc1ccc(CCNc2ccc3ccccc3c2)cn1 | inconclusive: 29.1 µM [cytotoxic, single point] | – |
| CCN(CC)C(=O)CN(C#N)c1nc(Cl)nc(N(C)C)n1 | inconclusive: 10.3 µM [cytotoxic, partial curve] | – |
| COc1ccc(OC)c(NC(=O)CN(c2ccc(C)cc2)S(=O)(=O)c2c(C)noc2C)c1 | inconclusive: 29.1 µM [cytotoxic, single point] | – |
| CN1CCN(c2ccc(NC(=S)NC(=O)/C=C/c3ccco3)cc2)CC1 | inconclusive: 29.1 µM [cytotoxic, single point] | – |
| C/C1=C\CCC2C(/C=C(\C)CC1)OC(=O)C2CN1CCCCC1 (stereo unspecified) | – | inactive: 0% |
| CC(C)n1[nH]c2ccccc2c1=O | inconclusive: 0.0082 µM [rising, full curve] | – |
| O=C(N/N=C/c1ccc(F)cc1)c1sccc1OCc1ccc(F)cc1 | inconclusive: 20.6 µM [cytotoxic, single point] | – |
| CCc1ccc(OCC(=O)NC(NC(=S)Nc2ccc(Cl)cc2)C(Cl)(Cl)Cl)cc1 (stereo unspecified) | active: 8.2 µM | – |
| Cc1ccc(C)c(NC(=S)N2CCC(N(C)CC3CCCO3)CC2)c1 (stereo unspecified) | inconclusive: 16.4 µM [cytotoxic, single point] | – |

| SMILES | Potency | activity change, negative = cytotoxic |
| --- | --- | --- |
| CC(=O)Nc1ccc2c(COC(=O)[C@H](C)N3C(=O)C4CCCCC4C3=O)cc(=O)oc2c1 (stereo partly specified) | inconclusive: 0.0046 µM [cytotoxic, full curve, poor fit] | – |
| Cn1c(=O)n(CCCO)c(=O)c2c1nc1n2CCCN1Cc1ccccc1 | – | inactive: 0.879% |
| Cc1cc(C)c(C2=Nn3c(C)nnc3SC2C)cc1C (stereo unspecified) | inconclusive: 20.6 µM [cytotoxic, single point] | – |
| O=C(Cc1nc2ccccc2[nH]c1=O)c1ccccc1 | inconclusive: 1.16 µM [rising, full curve] | – |
| Cc1cccc2c1N(CC(=O)OC(C)C)C(=O)C2=O | inconclusive: 18.4 µM [cytotoxic, single point] | – |
| CNc1ccc2nnc(C(F)(F)C(F)(F)C(F)(F)F)n2n1 | – | inactive: 0% |
| O=C(CCS(=O)(=O)c1ccccc1)N(CCCN1CCOCC1)c1nc2ccc(F)cc2s1 | inconclusive: 20.6 µM [cytotoxic, single point] | – |
| C(=C\c1ccccn1)/c1ccccc1 | inconclusive: 18.4 µM [cytotoxic, single point] | – |
| Cc1cccc(N2CCN(C(=O)CCC(=O)N3CCOc4ccc(Cl)cc43)CC2C)c1 (stereo unspecified) | inconclusive: 29.1 µM [cytotoxic, single point] | – |
| CC(=O)n1c(Cl)c(NC(=O)CCl)c2ccccc21 | inconclusive: 25.9 µM [cytotoxic, single point] | – |
| O[C@@H](c1cc(C(F)(F)F)nc2c(C(F)(F)F)cccc12)[C@H]1CCCCN1 | active: 18.4 µM and inconclusive: 29.1 µM [cytotoxic, single point] | – |
| Cc1ccc(Cl)cc1N1CCN(CCCNC(=O)c2ccc3nc(N4CCCCC4)sc3c2)CC1 | inconclusive: 18.4 µM [cytotoxic, partial curve] | – |
| COCCCNC(=S)N1CCN(c2ccc([N+](=O)[O-])cc2)CC1 | inconclusive: 14.6 µM [cytotoxic, single point] | – |
| CCCCC1C(=O)NN(c2ccccc2)C1=O (stereo unspecified) | inconclusive: 18.4 µM [rising, single point] | – |
| CCOC(=O)C1C(c2ccccc2O)NC(=O)NC1(O)C(F)(F)F (stereo unspecified) | – | inconclusive: 31.4% |
| O=C1OCCN1C(=O)[C@H]1[C@H](c2ccccc2)C(c2ccc(F)cc2)=NN1c1ccc(Br)cc1 | – | inactive: 0% |
| O=C(COC(=O)c1ccc(Cl)nc1)Nc1ccc(N2CCCCC2)cc1 | – | inactive: 0% |
| CCOC(=O)Cn1c2c(c(=N)c3ccccc31)CCC2 | – | inactive: 0% |
| O=C(c1ccc(Cl)cc1)N(Cc1ccco1)C1CCS(=O)(=O)C1 (stereo unspecified) | – | inactive: 0.857% |
| Cc1ccc(NNC(=O)C(O)(c2cccc(C(F)(F)F)c2)c2cccc(C(F)(F)F)c2)cc1 | active: 16.4 µM | – |
| CCOC(=O)C(Sc1cc(-c2ccccc2)nc2ncnn12)C(C)=O (stereo unspecified) | – | inconclusive: 0% |
| O=C(CSc1cccc2cccnc12)N1CCCC1 | active: 7.31 µM | – |
| CCC(C)n1c(S(=O)(=O)O)nc2ccccc21 (stereo unspecified) | – | inactive: -1.41% |
| CSCCC(C(=O)NC1CCCC1)n1c(C2CCCC2)nc2ccccc21 (stereo unspecified) | – | inconclusive: 12.6% |

| SMILES | Potency | activity change, negative = cytotoxic |
| --- | --- | --- |
| CCOC(=O)Cn1c(=O)oc2cc(S(=O)(=O)NCC3CCCO3)ccc21 (stereo unspecified) | – | inconclusive: 11.6% |
| COc1ccc(-c2coc3c(C(=O)NCc4ccccc4)cccc23)c(C)c1 | – | inactive: -6.25% |
| CCOC(=O)Cc1csc(NC(=O)c2cccs2)n1 | inconclusive: 10.3 µM [cytotoxic, partial curve, poor fit] | – |
| Cc1cc(N2CCN(Cc3cn(C)nc3-c3cccc(Cl)c3)CC2)cc(C)n1 | active: 9.2 µM | – |
| CNC(=O)c1cccc2nc3ccccc3nc12 | active: 16.4 µM | – |
| CC(=O)Nc1nc(C)c(-c2csc(Nc3cccc(C(C)=O)c3)n2)s1 | inconclusive: 18.4 µM [cytotoxic, single point] | – |
| Cc1ccc(-c2ccc(SCC(=O)NCC3CCCO3)nn2)cc1 (stereo unspecified) | – | inactive: 1.46% |
| CC(=O)N[C@@H](Cc1c[nH]c2ccccc12)C(=O)OCC(=O)Nc1ccc2c(c1)OCO2 | – | inactive: -2.56% |
| COc1ccc(-n2c(-c3ccc(Br)cc3)c[n+]3c2SC(C)C3)cc1 (stereo unspecified) | active: 5.8 µM | – |
| Clc1ccc(CO/N=C/c2c(-c3ccccc3)nc3n2CCS3)c(Cl)c1 | – | inactive: -4.42% |
| Cc1nonc1NC(=O)CSc1nc(C23CC4CC(CC(C4)C2)C3)nc2ccccc12 | inconclusive: 18.4 µM [cytotoxic, single point] | – |
| COc1cc(C2Nc3c(C)cc(C)cc3-c3cc(C)nn32)cc(OC)c1O (stereo unspecified) | inconclusive: 18.4 µM [cytotoxic, partial curve, poor fit] | – |
| O=C(c1ccc(Cl)c(S(=O)(=O)N2CCOCC2)c1)N1CCc2ccccc2C1 | active: 20.6 µM | – |
| O=S(=O)(c1ccc(-c2ccccc2)cc1)N1CCCCC1 | inconclusive: 20.6 µM [cytotoxic, single point] | – |
| CC(=O)C[C@@H](O)CC(=O)[C@H]1OC(=O)CC/C=C\Cc2ccccc21 | inconclusive: 29.1 µM [rising, single point] | – |
| COc1ccc(C(=O)Nc2ccc(S(=O)(=O)N3CCOCC3)cc2)cc1OC | – | inactive: 4.37% |
| COc1cc(CNC(C)(C)CO)cc(Br)c1OCc1ccc(Cl)cc1 | inconclusive: 29.1 µM [cytotoxic, single point] | – |
| COc1ccc(Cn2c(C(=O)O)c(CNCCc3cc(OC)ccc3OC)c3ccc(C)cc32)cc1 | inconclusive: 8.2 µM [cytotoxic, partial curve, poor fit] | – |
| CC(C)(C)OC(=O)CNC(=O)c1[nH]cnc1C(=O)NCCCCCN | inconclusive: 20.6 µM [rising, partial curve, poor fit] | – |
| COc1ccc(NC(=O)c2cc(C3CCCCN3S(=O)(=O)c3ccc(C#N)cc3)on2)c(C)c1 (stereo unspecified) | – | inactive: 0% |
| CCCCn1c(N)c(N(CC(C)C)C(=O)C2CC(=O)N(Cc3ccccc3)C2)c(=O)[nH]c1=O (stereo unspecified) | – | inactive: -1.2% |
| CCN1CCN(Cc2ccc(NC(=O)c3cc(NC(=O)c4cnnc5ccccc45)cc(OC)c3)cc2C(F)(F)F)CC1 | inconclusive: 32.6 µM [cytotoxic, single point] | – |
| O=C(CCl)N1CCN(CC(=O)N2CCCC2)CC1 | inconclusive: 16.4 µM [cytotoxic, single point] | – |
